In paper doi:10.1101/2024.11.04.621718:
Results are given in words; binding and its absence hold for the method and conditions named. In cells and extracts the contact can be indirect. Some entries that bind do so weakly or less than the wild type.

By UniProt entry, the sequences of proteins in these tests, tags left out. Where a name states a change or a piece, a line headed by the entry shows the natural chain unless it says otherwise. Chains listed by the source or under a name are the forms on record and can include a tag or linker. Residues count along the entry.
UniProt O15047: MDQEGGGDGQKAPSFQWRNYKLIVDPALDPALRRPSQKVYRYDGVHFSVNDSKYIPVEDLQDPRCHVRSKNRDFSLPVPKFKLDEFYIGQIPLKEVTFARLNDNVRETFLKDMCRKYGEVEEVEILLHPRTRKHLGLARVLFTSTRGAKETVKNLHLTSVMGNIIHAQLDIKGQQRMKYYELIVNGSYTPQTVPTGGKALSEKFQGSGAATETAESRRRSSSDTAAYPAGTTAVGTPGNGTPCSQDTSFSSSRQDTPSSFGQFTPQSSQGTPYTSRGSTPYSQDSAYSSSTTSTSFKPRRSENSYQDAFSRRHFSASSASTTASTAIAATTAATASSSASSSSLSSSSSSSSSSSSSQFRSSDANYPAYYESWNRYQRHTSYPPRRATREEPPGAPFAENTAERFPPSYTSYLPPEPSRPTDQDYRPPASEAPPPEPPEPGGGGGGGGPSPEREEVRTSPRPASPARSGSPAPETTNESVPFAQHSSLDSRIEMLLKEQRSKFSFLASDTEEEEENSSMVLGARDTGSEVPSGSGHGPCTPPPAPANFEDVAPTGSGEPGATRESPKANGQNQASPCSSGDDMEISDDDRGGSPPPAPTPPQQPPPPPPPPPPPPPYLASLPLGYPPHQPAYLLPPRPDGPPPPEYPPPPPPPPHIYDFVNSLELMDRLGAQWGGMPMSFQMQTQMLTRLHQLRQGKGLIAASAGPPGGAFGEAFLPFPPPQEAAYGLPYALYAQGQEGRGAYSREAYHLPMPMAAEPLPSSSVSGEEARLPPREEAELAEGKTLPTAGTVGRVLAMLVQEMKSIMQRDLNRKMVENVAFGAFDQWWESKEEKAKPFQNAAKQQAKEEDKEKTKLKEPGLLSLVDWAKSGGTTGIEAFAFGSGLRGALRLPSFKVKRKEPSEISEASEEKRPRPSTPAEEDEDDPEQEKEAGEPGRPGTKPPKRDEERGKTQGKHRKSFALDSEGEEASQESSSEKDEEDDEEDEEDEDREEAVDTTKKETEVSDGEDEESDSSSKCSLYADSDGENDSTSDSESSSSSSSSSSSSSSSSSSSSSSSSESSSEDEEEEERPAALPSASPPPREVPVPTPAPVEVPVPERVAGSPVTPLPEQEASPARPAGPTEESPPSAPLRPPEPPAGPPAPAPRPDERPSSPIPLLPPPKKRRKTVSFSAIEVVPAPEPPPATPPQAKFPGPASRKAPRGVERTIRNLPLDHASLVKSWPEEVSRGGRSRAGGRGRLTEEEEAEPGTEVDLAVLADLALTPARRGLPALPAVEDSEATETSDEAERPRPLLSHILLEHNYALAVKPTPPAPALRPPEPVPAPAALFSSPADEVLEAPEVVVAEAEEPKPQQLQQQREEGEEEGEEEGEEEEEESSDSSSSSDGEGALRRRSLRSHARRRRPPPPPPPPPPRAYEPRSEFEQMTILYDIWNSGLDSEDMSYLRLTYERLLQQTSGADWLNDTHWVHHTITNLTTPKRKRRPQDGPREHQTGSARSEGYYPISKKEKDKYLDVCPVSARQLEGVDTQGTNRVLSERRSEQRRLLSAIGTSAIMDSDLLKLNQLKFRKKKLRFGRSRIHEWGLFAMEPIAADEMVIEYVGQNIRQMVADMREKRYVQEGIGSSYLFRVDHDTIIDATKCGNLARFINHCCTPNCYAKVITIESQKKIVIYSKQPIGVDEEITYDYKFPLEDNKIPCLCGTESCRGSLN
SFB-tagged RRM (RNA recognition motif) fragment of KMT2F, amino acids 74-172: residues 74-172 of O15047
UniProt Q9NYV6: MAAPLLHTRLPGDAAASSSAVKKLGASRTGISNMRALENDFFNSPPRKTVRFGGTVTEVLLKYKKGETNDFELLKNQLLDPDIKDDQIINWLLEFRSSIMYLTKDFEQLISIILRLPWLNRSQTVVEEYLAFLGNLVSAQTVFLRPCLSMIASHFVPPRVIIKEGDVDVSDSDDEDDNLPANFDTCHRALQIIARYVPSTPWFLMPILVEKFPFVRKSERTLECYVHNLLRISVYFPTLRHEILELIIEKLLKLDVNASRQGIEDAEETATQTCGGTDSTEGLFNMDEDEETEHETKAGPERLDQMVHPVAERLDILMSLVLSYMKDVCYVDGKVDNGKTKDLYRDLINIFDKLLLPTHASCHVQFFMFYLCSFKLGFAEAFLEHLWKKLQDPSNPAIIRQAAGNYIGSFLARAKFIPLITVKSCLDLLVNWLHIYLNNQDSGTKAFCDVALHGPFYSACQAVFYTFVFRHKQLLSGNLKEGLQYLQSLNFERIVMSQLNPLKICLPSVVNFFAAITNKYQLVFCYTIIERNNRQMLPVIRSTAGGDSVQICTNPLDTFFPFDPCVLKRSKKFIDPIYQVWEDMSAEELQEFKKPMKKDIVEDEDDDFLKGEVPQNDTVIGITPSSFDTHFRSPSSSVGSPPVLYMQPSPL

Columns and labels:
[1] = target: SFB-tagged KMT2F N1646A (catalytic dead mutant) (UniProt O15047); assay: pull-down
[2] = target: SFB-tagged RRM (RNA recognition motif) fragment of KMT2F, amino acids 74-172 (UniProt O15047); assay: pull-down
[3] = target: SFB-tagged full length KMT2F (UniProt O15047); assay: pull-down
[4] = target: KMT2F (endogenous) (human (endogenous in HeLa)) (UniProt O15047); assay: co-IP

binding [1]: binds | binding [2]: binds | binding [3]: binds | binding [4]: binds
Substance: RRN3 (endogenous) (from UniProt Q9NYV6 1-651)
